Source: PubChem BioAssay AID624297 (National Center for Advancing Translational Sciences (NCATS), 2012)
The whole screen tested about 340,000 compounds, of which about 6,200 (1.8%) were called active. The inconclusive results got no clear call from the source; some entries with a clear call stand among them for comparison. The call rests on the fitted dose curve; in most records, active means well fitted activation curve with a large enough effect; inconclusive means small, poorly fitted or top-dose-only effect; inactive means no such curve, though single readings can be large or run the other way. Potencies beside an inconclusive call are fits to weak or partial responses and may not hold up.

assay: A quantitative high throughput screen for small molecules that induce DNA re-replication in SW480 colon adenocarcinoma cells.; further: nearly all actives have a fitted effect of over 55% in size; conditions: Hoechst DNA content imaging, 48 h; series mostly up to 46.1 µM
Method in brief: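 Image-based DNA-content assay: after two days of treatment, nuclei were labelled with the DNA dye Hoechst and imaged, and hits were compounds raising the count of nuclei showing high fluorescence intensity.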
Potency means the concentration at half of the fitted maximal effect.

SMILES	Potency
Cc1cccc(NCC(=O)N/N=C/c2ccc(Br)cc2)c1	inconclusive: 29.1 µM [activator, single point]
CCN(CC)c1ccc(N=C2C(=O)Nc3ccccc32)cc1	inconclusive: 3.26 µM [activator, full curve, poor fit]
CC(NC(=O)c1cccc(S(=O)(=O)N2CCN(C)CC2)c1)c1ccc(Cl)cc1Cl (stereo not drawn)	inactive
CCOc1ccccc1C(=O)NCC(=O)N(C)Cc1ccccc1C	inconclusive: 20.6 µM [activator, partial curve, poor fit]
COc1cccc(CNS(=O)(=O)c2csc(C(N)=O)c2)c1	inconclusive: 7.31 µM [activator, partial curve, poor fit]
CCOc1ccccc1NC1=C(Cl)C(=O)N(Cc2ccccc2)C1=O	inactive
CCCCCCCCCCCCCCCC[N+](C)(C)Cc1ccc(F)cc1	inconclusive: 13 µM [activator, partial curve, poor fit]
CC1CC(=O)Nc2ccccc2N1S(=O)(=O)c1ccc(C(F)(F)F)cc1 (stereo not drawn)	inconclusive: 23.1 µM [activator, single point]
Nc1ncnc(Nc2ccccn2)c1[N+](=O)[O-]	inactive
O=C(Nc1nc2ccccc2s1)c1ccc(OCC2CCCO2)cc1 (stereo not drawn)	inactive
O=C(C1CCCCC1)N1CCN(c2ccnc3cc(Cl)ccc23)CC1	inconclusive: 3.26 µM [activator, single point]
Nc1c(C(=O)NCc2ccco2)c2nc3ccccc3nc2n1CCc1ccccc1F	active: 5.8 µM
COCCC1CCCCN1C(=O)c1ccc(OC2CCN(C(C)=O)CC2)c(OC)c1 (stereo not drawn)	inconclusive: 4.11 µM [activator, single point]
N/C(=C\C(=O)c1cc(Cl)ccc1O)C(Cl)(Cl)Cl	active: 10.3 µM
CCCCOc1ccc(C(=O)NCC(=O)OC2CCOC2=O)cc1 (stereo not drawn)	inconclusive: 29.1 µM [activator, single point]
O=C(NCCS(=O)(=O)N1CCN(c2ccccc2)CC1)C1CCCC1	inconclusive: 6.51 µM [activator, partial curve, poor fit]
COc1ccc(F)cc1CN1CCN(C(=O)CCC(=O)Nc2nnc(C3CCCCC3)s2)CC1	inconclusive: 2.82 µM [activator, single point]
CCOc1cc(C(=O)Nc2nnc(S(=O)(=O)N3CCOCC3)s2)cc(OCC)c1OCC	inactive
CCOC(=O)c1ccc(-n2c(O)c(/C=N/NC(=O)C3COc4ccccc4O3)c3ccccc3c2=O)cc1 (stereo not drawn)	inconclusive: 23.1 µM [activator, single point]
Cc1c(Cl)cccc1NC(=S)NCCC(C)C	inconclusive: 29.1 µM [activator, single point]
CCN(CC)c1ccc(C(=O)n2cnc3ccccc32)cc1	inconclusive: 20.6 µM [activator, single point]
Cc1ccc(NC(=O)c2sc(Cl)nc2-c2ccccc2)cc1	inactive
CCOc1ccc(C(=O)n2cc(C(=O)OC)c3ccccc32)cc1	inconclusive: 20.6 µM [activator, partial curve, poor fit]

SMILES	Potency
CC(=O)Nc1nnc(-c2ccc3c(c2)CCCC3)o1	inactive
Cc1cc(Br)ccc1SCC(=O)OCC(O)=C(C#N)c1nc2ccccc2[nH]1	inconclusive: 29.1 µM [activator, partial curve, poor fit]
CCN(C(=O)c1ccc2c(Cl)c3c(nc2c1)CCC3)c1cccc(C)c1	inconclusive: 29.1 µM [activator, single point]
COc1ccc(-c2cc(-c3cccs3)nc3sc(C#N)c(N)c23)cc1	inconclusive: 9.2 µM [activator, partial curve]
COc1ccc(S(=O)(=O)NCC2CCC(C(=O)O)CC2)cc1 (stereo not drawn)	inactive
Cc1ccc2[nH]c(CSc3ccccc3)cc(=O)c2c1	inactive
O=C(O)c1cc(-c2ccccc2)nc(-c2ccccc2)c1	inconclusive: 4.11 µM [activator, full curve, poor fit]
COc1ccccc1-c1nnc(NC(=O)c2ccc(S(=O)(=O)N(C)Cc3ccccc3)cc2)o1	active: 20.6 µM
Cc1cc(CN2CCN(CCC#N)CC2)c(O)c(C2(C)CCCCC2)c1	inconclusive: 20 µM [activator, single point]
CC(Sc1nnnn1-c1ccc(Cl)cc1)C(=O)NCC(=O)Nc1ccc(F)c(F)c1F (stereo not drawn)	inactive
Cc1cc2c(cc(C(=O)NCCCN3CCOCC3)n2Cc2ccc(Cl)cc2)o1	active: 18.4 µM
COc1ccc(-c2nnn(CC(=O)N3CCN(c4ccccc4OC)CC3)n2)cc1	inactive
O=C(c1cnn2c(-c3ccccc3)cc(-c3ccccc3)nc12)N1CCN(Cc2ccccc2)CC1	active: 18.4 µM
CC(OC(=O)c1ncc(Cl)c(Cl)c1Cl)C(=O)NC1(C#N)CCCCC1 (stereo not drawn)	inactive
O=C1C=C(c2cccs2)C[C@H](c2ccccc2)[C@H]1n1nnc([N+](=O)[O-])n1	inconclusive: 2.06 µM [activator, partial curve, poor fit]
OC(c1cc(-c2ccc(Cl)cc2)nc2ccccc12)C1CCCCN1 (stereo not drawn)	inconclusive: 29.1 µM [activator, single point]
COc1ccc(Cn2c(C3CC3)nc3ccc(NC(=O)c4ccco4)cc3c2=O)cc1	inconclusive: 29.1 µM [activator, partial curve, poor fit]
COc1ccc(S(=O)(=O)N2CCOCC2)cc1NC(=O)CCNC(=O)c1ccc([N+](=O)[O-])cc1	inconclusive: 6.51 µM [activator, single point]
CC1N(C)c2cc(NC(=O)c3ccco3)ccc2C1(C)C (stereo not drawn)	inconclusive: 29.1 µM [activator, single point]
CNC(=S)Nc1ccc(C23CC4CC(CC(C4)C2)C3)cc1	inconclusive: 29.1 µM [activator, single point]
O=C(CN1C(=O)NC2(CCCC2)C1=O)Nc1cc(C(F)(F)F)ccc1N1CCCCC1	inconclusive: 0.058 µM [activator, full curve, poor fit]
COc1ccc(/C=C(\NC(=O)c2ccc(OC)c(OC)c2)C(=O)NCCc2c[nH]c3ccccc23)cc1	inactive
CCOc1cc2nc(-c3ccc(OC)c(OC)c3)nc(NCCCN3CCOCC3)c2cc1OC	inconclusive: 16.4 µM [activator, single point]

3 compounds from above, arranged by length of the SMILES, largest number first.
SMILES	Potency
CCOc1cc2nc(-c3ccc(OC)c(OC)c3)nc(NCCCN3CCOCC3)c2cc1OC	inconclusive: 16.4 µM [activator, single point]
COc1ccc(Cn2c(C3CC3)nc3ccc(NC(=O)c4ccco4)cc3c2=O)cc1	inconclusive: 29.1 µM [activator, partial curve, poor fit]
CNC(=S)Nc1ccc(C23CC4CC(CC(C4)C2)C3)cc1	inconclusive: 29.1 µM [activator, single point]

Later entries

SMILES	Potency
CCN(C[C@H]1N[C@@](C)(C(=O)OC)[C@H]2C(=O)N(Cc3ccccc3)C(=O)[C@@H]12)S(=O)(=O)c1ccc(OC)cc1	inconclusive: 29.1 µM [activator, single point]
O=C(Nc1ccc(C(=O)Nc2ccccc2Cl)cc1)c1cccnc1	inactive
CCOc1ncccc1C(=O)Nc1ccc(S(=O)(=O)N2CCCC2)cc1	inconclusive: 3.66 µM [activator, partial curve, poor fit]
C/C(=C\C(=O)c1ccc(Br)cc1)NNC(=O)c1ccc(O)cc1	inconclusive: 18.4 µM [activator, single point]
OCCC1CN(Cc2cccnc2)CCN1CCc1ccccc1 (stereo not drawn)	inconclusive: 0.651 µM [activator, single point]
CC(=O)N1CCN(S(=O)(=O)c2ccc3c(c2)OCCO3)CC1	inactive
Cc1ccc(C)c(NS(=O)(=O)c2cc(C(=O)N3CCCC3)ccc2Cl)c1	inconclusive: 16.4 µM [activator, partial curve, poor fit]
Cc1ccc(NC(C)C(=O)N/N=C/c2ccc([N+](=O)[O-])s2)cc1 (stereo not drawn)	inconclusive: 20.6 µM [activator, partial curve]
CCOC(=O)c1c(NC(=O)CSc2ncn[nH]2)sc(C)c1C	inconclusive: 0.291 µM [activator, partial curve, poor fit]
CCOC(=O)C(NCc1ccc(OC)cc1)(NC(C)=O)C(F)(F)F (stereo not drawn)	inconclusive: 32.6 µM [activator, partial curve, poor fit]
CCCCn1c(SC(C)C(N)=O)nc2cc(C(=O)OC)ccc2c1=O (stereo not drawn)	inactive
COc1ccc(Cl)cc1NC(=O)CN(C)C(=O)C1COc2ccccc2O1 (stereo not drawn)	inactive
N#Cc1ccccc1Cn1c(=O)n(Cc2ccc(C(=O)NCc3ccco3)cc2)c(=O)c2ccccc21	inconclusive: 25.9 µM [activator, single point]
CN(C)S(=O)(=O)c1cccc(C(=O)N(Cc2ccc(F)cc2)Cc2ccco2)c1	inactive
CCOc1ccc2c(c1)C(=O)C(=O)N2CC1COc2ccccc2O1 (stereo not drawn)	active: 8.2 µM
CCOC(=O)CNC(=O)COc1coc(CN2CCN(c3ccccc3)CC2)cc1=O	inactive
COc1ccc(C2NC(=S)NC(O)(C(F)(F)F)C2C(=O)c2cccs2)cc1 (stereo not drawn)	inconclusive: 3.26 µM [activator, single point]
Cc1c(CN(C)C)c2c(n1C)C(=O)c1ccc(Br)cc1-2	inconclusive: 20.6 µM [activator, single point]
O=C1CC(N2CCCCCC2)C(=O)N1c1ccc(F)cc1 (stereo not drawn)	inconclusive: 25.9 µM [activator, single point]
Nc1nc(Nc2ccccc2)sc1C(=O)c1ccccc1	inconclusive: 16.4 µM [activator, partial curve, poor fit]
CN1CCN(Cc2cn[nH]c2-c2ccc(F)cc2F)[C@@H](c2ccccc2)C1	inconclusive: 4.11 µM [activator, full curve, poor fit]
Cc1ccc(NC(=O)C(OC(=O)c2ccc(C=O)cc2)c2ccccc2)cc1Cl (stereo not drawn)	inconclusive: 0.291 µM [activator, full curve, poor fit]
